From patent US7534763B2 (Bristol-Myers Squibb Company, priority 2004, dated 2009)
[ ]: non-standard residue; d: D form. Ala(6-(2-MePh)pyridin-3-yl) = Cc1ccccc1-c1ccc(C[C@H](N)C(=O)O)cn1; Bip(2'-Et-4'-OMe) = CCc1cc(OC)ccc1-c1ccc(C[C@H](N)C(=O)O)cc1; αMePhe(2-F) = C[C@](N)(Cc1ccccc1F)C(=O)O; αMeP = C[C@@]1(C(=O)O)CCCN1; dNMeA = CN[C@H](C)C(=O)O

Test: general procedure: Fmoc solid-phase peptide synthesis; Sieber amide resin (loading 0.5 to 0.7 mmol/g); Rink amide MBHA or PAL resin for C-terminal carboxamides; 2-chlorotrityl; DIC/HOBT, HBTU/HOBT, BOP, PyBOP, DIC/HOAT, HATU/HOAT
Settings: whole synthesis

Row | Substance | isolated mass (scale 0.015 mmole) [mg] | isolated yield (scale 0.015 mmole) [% recovery] | final HPLC purity (Analytical RP-HPLC, YMC ODS S3 (4.6x50 mm), UV/VIS or diode array detector, scale 0.05 mmol) [%] | isolated mass (scale 0.05 mmol) [mg] | isolated yield (scale 0.05 mmol) [% recovery]
1 | H-H[dNMeA]EGT[αMePhe(2-F)]TSD[Bip(2'-Et-4'-OMe)][Ala(6-(2-MePh)pyridin-3-yl)]-NH2 (SMILES CCc1cc(OC)ccc1-c1ccc(C[C@H](NC(=O)[C@H](CC(=O)O)NC(=O)[C@H](CO)NC(=O)[C@@H](NC(=O)[C@](C)(Cc2ccccc2F)NC(=O)[C@@H](NC(=O)CNC(=O)[C@H](CCC(=O)O)NC(=O)[C@@H](C)N(C)C(=O)[C@@H](N)Cc2c[nH]cn2)[C@@H](C)O)[C@@H](C)O)C(=O)N[C@@H](Cc2ccc(-c3ccccc3C)nc2)C(N)=O)cc1) | 5.2 | 18.5 | – | – | –
2 | H-H[αMeP]EGT[αMePhe(2-F)]THD[Bip(2'-Et-4'-OMe)][Ala(6-(2-MePh)pyridin-3-yl)]-NH2 (SMILES CCc1cc(OC)ccc1-c1ccc(C[C@H](NC(=O)[C@H](CC(=O)O)NC(=O)[C@H](Cc2c[nH]cn2)NC(=O)[C@@H](NC(=O)[C@](C)(Cc2ccccc2F)NC(=O)[C@@H](NC(=O)CNC(=O)[C@H](CCC(=O)O)NC(=O)[C@]2(C)CCCN2C(=O)[C@@H](N)Cc2c[nH]cn2)[C@@H](C)O)[C@@H](C)O)C(=O)N[C@@H](Cc2ccc(-c3ccccc3C)nc2)C(N)=O)cc1) | – | – | 94 | 21.7 | 42
